# Reference: patent publication US20250230477A1, “A PROCESS FOR THE PREPARATION OF TETRAHYDROANTHRACENES FROM STREPTOMYCES SPP. AND ANTICANCER ACTIVITY THEREOF” (Council of Scientific and Industrial Research, priority 2021, published 2025)
# Some of these results come from one statement about several compounds together.
# Test system: MCF-7, MDA-MB231, A-549, MiaPaca-2, PC-3, HCT-116, HT-29
# Assay: Anticancer activity against various cancer cell lines
# Type: cell-based
# Conditions: breast, lung, pancreatic, prostate, colon cancer cell lines
row,Structure (SMILES),Anticancer activity
1,CC(=O)[C@H]1c2cc3cccc(O)c3c(O)c2C(=O)C[C@]1(C)O [Compound-1],potent anticancer activity
2,"CC(=O)[C@@H]1C(C)=CC(=O)c2c1c(-c1c3c(c(O)c4c(O)cccc14)C(=O)C[C@](C)(O)[C@H]3C(C)=O)c1cccc(O)c1c2O [Compound-3, Setomimycin]",potent anticancer activity
3,CC(=O)[C@H]1c2c(c(O)c3c(O)cccc3c2-c2c3c(c(O)c4c(O)cccc24)C(=O)C[C@](C)(O)[C@H]3C(C)=O)C(=O)C[C@]1(C)O [Compound-2],potent anticancer activity
